Laboratory results reported in PubChem BioAssay AID588674 (Broad Institute, 2011).
About 1,800 (0.5%) of roughly 360,000 compounds were called active. Inconclusive results, whose numbers are uncertain, are shown with a selection of clear calls.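 How the source made its calls: active means mean inhibition of at least 75% with every replicate also reaching 75%; inconclusive means mean inhibition at least 75% but some replicate below; inactive means mean inhibition below 75%.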

Test: reduction of Shn3 3'UTR firefly luciferase signal, primary screen, Schnurri-3 inhibitor project, cell-based, Clone20 osteoblasts, set 2 (AID 588674);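 further: 0% = median of neutral control wells and 100% = pilot-screen positive control compound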
Conditions: Clone20 osteoblast Shn3 3'UTR firefly luciferase, 24 h; at 12.5 µM; active compounds read high

Compound	inhibition
CNc1ccccc1C(C)(C)c1cc(-c2cccc(OC)c2)no1	inconclusive: 85.4%
COc1ccc(-c2csc(Nc3ccc(C)cn3)n2)cc1OC	inactive: -44.1%
CCn1c(=NC(=O)CS(=O)(=O)c2ccccc2)sc2cccc(OC)c21	active: 87.2%
Cc1cc(C)nc(SCC(=O)Nc2ccnc3ccccc23)n1	inconclusive: 85.6%
C=CCn1c(O)c(N=NC(=S)Nc2ccccc2F)c2cc(S(=O)(=O)N3CCOCC3)ccc21	inconclusive: 86.4%
COc1ccccc1CNc1nc(NCc2ccccc2SC)c2sccc2n1	inconclusive: 87.2%
COc1cc2c(cc1OC)C1CC(=O)C(CC(C)C)CN1CC2 (stereo not given)	inactive: 3.51%
CCN(CC)CCN1C(=O)/C(=C\c2ccc(Cl)c([N+](=O)[O-])c2)SC1=Nc1ccc(OC)cc1	active: 96.4%
CN(C)c1ccc(C=Cc2ccnc3c(O)cccc23)cc1	inconclusive: 88.1%
O=C(O)C1CCCCC1C(=O)Nc1cc(C(F)(F)F)ccc1Cl (stereo not given)	inactive: -32.2%
COc1ccc(NS(=O)(=O)c2ccc(N3CCCCC3)c(N)c2)cc1	inconclusive: 85.7%
CCN(CC(=O)Nc1c(F)cccc1F)C(=O)c1n[nH]c2ccccc12	inactive: 12.6%
O=[N+]([O-])c1ccc(C=Nc2ccc(Cl)cc2Cl)s1	inconclusive: 81.7%
Cc1ccc(-n2c(-c3ccccc3)c[n+]3c2CCc2ccccc2-3)c(C)c1	inconclusive: 87.7%
FC(F)(F)c1cccc(NC(=S)NC(c2ccccc2)c2ccccc2)c1	inconclusive: 86.9%
O=C(Nc1ccc2oc(-c3ccncc3)nc2c1)c1ccc([N+](=O)[O-])o1	inconclusive: 85.7%
Fc1ccc(F)c(C2=NNC(=Nc3ccccc3F)SC2)c1	inactive: 36.3%
CCN1/C(=C/C=C/c2sc3ccccc3[n+]2CC)Sc2ccccc21	active: 94.8%
CCN1C=CC(=C2C(=O)c3ccccc3C2=O)C=C1	inconclusive: 82.1%
Cc1ccc(-n2nnnc2-c2cnc(-c3cccnc3)nc2C(F)(F)F)cc1	inconclusive: 86.4%
O=C(O)c1ccc(S(=O)(=O)/N=C2\C=C(Nc3ccccc3F)C(=O)c3ccccc32)cc1	inconclusive: 88.2%
Cc1ccc(CCNC(=O)c2cc(-c3ccncc3)nc3ccc(S(=O)(=O)N4CCOCC4)cc23)cc1	inactive: 8.18%

Compound	inhibition
C=CCOc1nc2c(c(=O)n(C)c(=O)n2C)n1Cc1ccccc1Cl	inconclusive: 82.8%
CC(=O)Nc1ccc(NC2=C/C(=N/S(=O)(=O)c3cccs3)c3ccccc3C2=O)cc1	active: 96.3%
CC[n+]1c(C)n(-c2ccccc2)c2ccc(NC(C)=O)cc21	inconclusive: 81.3%
COc1cccc(/C=N/NC(=O)c2c(C)nc3ccc(Br)cn23)c1O	inconclusive: 85.7%
Cc1ccc(-c2nc3ccccc3[nH]2)cc1NC(=O)c1sc2cc(Cl)ccc2c1Cl	inactive: -14.5%
CC(C)(C)C(=O)/C(=C/c1ccc(Cl)cc1)n1cncn1	inconclusive: 85.1%
O=C(N/N=C/c1ccccc1O)c1cccc(C(F)(F)F)c1	active: 92.8%
Cc1cccc(C(C)(C)C)c1OCCN1CCCC1	inconclusive: 85.9%
O=C(N/N=C\c1c(O)ccc2ccccc12)c1cncc(Br)c1	active: 86.8%
Cc1ccc2cc(CN(CC3CCCO3)C(=O)NC3CCCCC3)c(=O)[nH]c2c1C (stereo not given)	inconclusive: 86%
O=c1cc(-c2ccc(O)cc2)oc2ccc3ccccc3c12	inconclusive: 85.2%
COc1cc(CNCCN2CCOCC2)ccc1OCc1ccc(Cl)cc1Cl	inactive: 3.27%
CCOC(=O)c1cc2c(=Cc3ccc(N(C)C)cc3)c3ccccc3n2[n+]1C	inconclusive: 88%
Cc1c(CCOC(=O)C23CC4(C)CC(C)(CC(C)(C4)C2)C3)sc[n+]1CC(=O)c1ccccc1	active: 90.3%
Oc1cccc(C(Nc2nccs2)c2ccc3cccnc3c2O)c1 (stereo not given)	active: 91.1%
Cc1ccc(-c2nc(Nc3ccc(O)cc3)c3ccccc3n2)cc1	inactive: 14.7%
CC(C)CN(C(=O)COC(=O)COc1ccc2c(c1)CCC2)c1c(N)n(Cc2ccccc2)c(=O)[nH]c1=O	inactive: 4.34%
CC(C)c1ccc(Oc2cccc3c2S(=O)(=O)N(C2CCCC2)CC(COCc2ccccc2)O3)cc1 (stereo not given)	active: 86.5%
CCCC(=O)N1CCC1(C)C(=O)NS(=O)(=O)c1ccc(OC)cc1 (stereo not given)	inconclusive: 81.3%
O=C(N1CCC(n2nc(-c3ccccc3)oc2=O)CC1)C1(c2ccc(Cl)cc2)CC1	inactive: -0.939%
CCOC(=O)c1cnc(-n2nc(C)cc2C)nc1NC1CCCC1	inconclusive: 86.7%
O=C(NCCc1ccccc1)c1ccc2c(c1)OCCCO2	inconclusive: 85.3%

Compound	inhibition
Cc1cccc(CC2(O)C(=O)Nc3ccccc32)n1 (stereo not given)	inconclusive: 81.9%
CCCCN1CC(COCc2ccccc2)Oc2cccc(Oc3ccc(C(C)C)cc3)c2S1(=O)=O (stereo not given)	inconclusive: 86.3%
O=C(NCCCn1ccnc1)C(=O)NCC1OCCCN1S(=O)(=O)c1ccccc1 (stereo not given)	active: 90%
Cc1ccc(NC(=O)COCC(=O)Nc2ccc(F)cc2)cc1	inactive: -14.3%
O=C(NCc1ccccc1C(F)(F)F)c1cccc2c1C(=O)c1ccc(N3CCC(N4CCCCC4)CC3)cc1S2(=O)=O	inconclusive: 86.7%
O=C(/C(=C/c1ccc(Cl)cc1)c1nc2ccccc2[nH]1)c1ccccc1	inconclusive: 83.6%
CCCCCc1ccc(-c2cn(CCc3c[nH]c4ccccc34)nn2)cc1	inactive: 14.7%
O=S(=O)(c1ccc(F)c(F)c1F)N1CCN(c2ncnc3sccc23)CC1	inconclusive: 81.9%
CCCCCOc1ccc(Br)cc1/C(C)=N/NC1=NCCN1	inconclusive: 85.7%
C=CCC[C@H](Cc1ccc(F)cc1)C(=O)OC[C@H](Cc1c[nH]c2ccccc12)NC(=O)[C@@H](CC=C)CC(=O)N[C@H](CO)Cc1ccccc1	active: 91.5%
CCOC(=O)N1CCN(C(=O)c2cc(COc3ccc4ncccc4c3)on2)CC1	inconclusive: 80.5%
OCc1ccccc1-c1nc(NCc2ccccc2)nc2ccsc12	inactive: -15.5%
CC(=NNC(=S)N1CCCCCC1)c1cccc2cccnc12	inconclusive: 85.3%
COc1ccc(-n2c(=O)c(CCC(=O)N(C)Cc3ccccc3C)nc3ccccc32)cc1	inactive: 16%
CCS(=O)(=O)c1ccc2oc(SCC(=O)N3CCCCC3)nc2c1	inconclusive: 85.9%
Cc1ccc(NC(=O)NCCCN2CCOCC2)cc1	inconclusive: 86.4%
CC(C)(C)N(Cc1ccccc1)C(=O)COC(=O)CCc1c[nH]c2ccccc12	inconclusive: 85.5%
Cc1ccc(S(=O)(=O)NN2C(=O)/C(=C/c3ccccn3)SC2=S)cc1	inactive: -7.15%
COc1ccc(S(=O)(=O)N2CCN(C(=O)c3cc(-c4ccc(Br)cc4)n[nH]3)CC2)cc1OC	active: 90.6%
O=C(Oc1c(CN2CCOCC2)cc(Cl)c2cccnc12)c1ccccc1Cl	inconclusive: 87%
COCCNC(=O)C1(C)CCCN(C(=O)c2ccc(C#N)cc2)C1 (stereo not given)	inactive: -8.84%
O=C(Nc1cccc(C(F)(F)F)c1)Nc1ccc(N2CCCC2)c(S(=O)(=O)Nc2ccccc2Cl)c1	active: 92%

A stretch of the results above:
Compound	inhibition
CC(C)(C)N(Cc1ccccc1)C(=O)COC(=O)CCc1c[nH]c2ccccc12	inconclusive: 85.5%
Cc1ccc(S(=O)(=O)NN2C(=O)/C(=C/c3ccccn3)SC2=S)cc1	inactive: -7.15%
COc1ccc(S(=O)(=O)N2CCN(C(=O)c3cc(-c4ccc(Br)cc4)n[nH]3)CC2)cc1OC	active: 90.6%

Remaining list, next part:

Compound	inhibition
CCOC(=O)N1CCN(S(=O)(=O)c2ccc(C(=O)Nc3nnc(C4CC4)o3)cc2)CC1	inactive: -2.62%
CC(=O)N[C@@H](Cc1c[nH]c2ccccc12)C(=O)OCC(=O)Nc1cc(C)on1	inconclusive: 85.3%
CN1C(=O)/C(=C/c2cccc(Cl)c2)Sc2ccc(C(=O)N3CCOCC3)cc21	inactive: -6.62%
Cc1c(C(=O)OCC(O)=C(C#N)c2nc3ccccc3[nH]2)oc2ccc(Br)cc12	inconclusive: 85.5%
O=c1oc2ccccc2cc1-c1cn2ccccc2n1	inconclusive: 87.3%
COc1ccc(CCNC(=O)c2ccc(NC(=O)CC3SC(N4CCCCC4)=NC3=O)cc2)cc1 (stereo not given)	inactive: -85.8%
CC[C@@H](C)[C@H](NC(=O)OC(C)(C)C)c1nnc(S(=O)(=O)Cc2cc(C)ccc2C)o1	inconclusive: 88.7%
CC(C)NC(=O)C1CCN(C(=O)c2cc3sccc3n2Cc2ccc(F)cc2)CC1	inconclusive: 85.7%
CCOc1cccc(NCc2cc3c(C(C)(C)C)nn(-c4ccccc4)c3[nH]c2=O)c1	inactive: 7.96%
COc1cc(S(=O)(=O)N(Cc2cccs2)CC2CCCO2)ccc1-n1cnnn1 (stereo not given)	inactive: 11.7%
COc1cc(SC#N)ccc1N=Cc1c(C)[nH]n(-c2ccc(C)c(C)c2)c1=O	inconclusive: 86.1%
O=C(Oc1ccc(/C=N/Nc2ccccc2)cc1)c1ccccc1	inactive: -15.8%
COc1ccc(S(=O)(=O)Nc2ccc3oc(C)c(C(C)=O)c3c2)cc1	inconclusive: 81.3%
CCOC(=O)N1CCN(C(=O)c2ccc(Cn3c(=S)[nH]c4ccc(Br)cc4c3=O)cc2)CC1	inconclusive: 85.3%
CCCCNc1cccc2c1S(=O)(=O)N(CCCC)CC(COCc1ccccc1)O2 (stereo not given)	inconclusive: 85.7%
COc1cccc(/C=N/NC(=O)c2cc(-c3ccccn3)nc3ccccc23)c1O	inconclusive: 85.2%
O=C(Nc1ccccc1)Nc1cc(OCC(F)(F)F)cc(OCC(F)(F)F)c1	active: 93.4%
O=C(CCn1cnc(-c2ccccc2)c1-c1ccccc1)N/N=C/c1ccccc1O	inconclusive: 86.6%
O=S(=O)(c1ccc(Cl)c(Cl)c1)c1snnc1-c1ccccc1	inconclusive: 85.7%
